Our source for the AC50 values is PubChem BioAssay AID901 (National Center for Advancing Translational Sciences (NCATS), 2007).

Broadly, the AC50 is the concentration at which the activity in the assay is half-maximal.

SMILES strings stand for the structures. This is one part of the list. The main result of the screen is listed elsewhere. These columns were measured beside it and carry no call. Most of these compounds were active or inconclusive in the main read-out, so they are no random draw. Potencies come from curve fits of mixed quality, noted in brackets.

The nature of the experiment: qHTS Assay for Identifying the Cell-Membrane Permeable IMPase Inhibitors. Particulars: CHO-M1 cells, IP1 accumulation, HTRF TR-FRET ratio; measured here: donor channel 620 nm AC50.
On to `C=CCOc1ccc(Oc2cc(C)nc(SC)n2)nn1`, for which the AC50 was 3160 nM [falling, partial curve]. Under `COc1cc(C(=O)NCCC2=CCCCC2)cc(OC)c1OC` stands 5010 nM [rising, partial curve, poor fit]; under `CCCCOc1cccc(C(=O)O)c1`, 3980 nM [falling, partial curve, poor fit]; under `COc1ccc(NC(=O)Cn2nc(C(F)(F)F)c3c2CCCC3)cc1OC`, 708 nM [falling, full curve]. As for `CCCCC(c1nnnn1CCOC)N1CCN(Cc2ccccc2)CC1` (configuration not stated), the concentration at half-maximal activity (AC50) is 31600 nM [falling, single point]. With `CCCCc1n[nH]c2c1C(=O)CC(C)(C)C2`, the AC50 was 3980 nM [falling, single point].

Take `O=C(NCCc1ccccc1)C1CCCN(S(=O)(=O)c2cccnc2)C1` (configuration not stated): the AC50 was 12600 nM [falling, partial curve]. Consider `Cc1ccnc2nc(C(=O)NCc3cccs3)nn12`, for which the AC50 was 5620 nM [rising, single point]. Consider `CSc1ccccc1C(=O)N1CCOCC1`, for which the AC50 is 126 nM [falling, single point]. Regarding `c1ccn2c(CNc3ncnc4sccc34)nnc2c1`, the AC50 is 50.1 nM [rising, full curve, poor fit]. For the molecule `CCC(CC)NC(=O)CSc1nnc(-c2ccc(OC)cc2)n1C(C)C`, the AC50 is 35500 nM [falling, single point]. With `O=C(O)c1cccc(NC(=S)NC(=O)C(c2ccccc2)c2ccccc2)c1`, the AC50 is 3980 nM [falling, full curve]. Take `COc1cccc(NC(=O)c2cn(C3CCCCC3)c(=O)c3c2c2ccccc2n3C)c1`: the AC50 was 3550 nM [falling, partial curve, poor fit].

As to `Cc1cc(F)ccc1NC(=O)c1sc2nc(-c3cccs3)ccc2c1N`, the AC50 is 5620 nM [rising, partial curve]. The value for `Cc1c(C2N3CC4(C)CN2CC(C)(C3)C4=O)c2ccccc2n1C` (configuration not stated) was 63.1 nM [rising, partial curve, poor fit]. Under `NC(=O)NCc1ccc(Cl)cc1` stands 2510 nM [rising, single point]. In the case of `COc1ccc(NC(=O)C2CCN(S(=O)(=O)c3cccc4cccnc34)CC2)cc1OC`, the AC50 was 35500 nM [rising, single point].

On to `CC(C)C(=O)NCCCc1ccccc1`, for which the concentration at half-maximal activity (AC50) is 5010 nM [rising, single point]. Consider `O=C1CN(C(=O)CSc2nc3cc(Cl)ccc3c(=O)n2Cc2ccccc2)c2ccccc2N1`, for which the AC50 is 35.5 nM [rising, full curve, poor fit]. On to `COc1ccc(NC(=O)Cn2cc(C(=O)C3CC3)c3ccccc32)cc1`, for which the concentration at half-maximal activity (AC50) is 5620 nM [falling, single point]. For the molecule `O=C(NC(=S)Nc1ccc(Cl)cn1)C(c1ccccc1)c1ccccc1`, the AC50 was 15.8 nM [falling, full curve, poor fit]. Under `CC(=O)C1=C(C)NC(SCC(=O)c2ccc(Cl)cc2)=C(C#N)C1CC(C)C` (configuration not stated) stands 12600 nM [rising, partial curve]. On to `CCn1c(CCNC(=O)c2ccc(Cl)cc2Cl)n[nH]c1=S`, for which the AC50 was 794 nM [falling, full curve, poor fit].

Regarding `Cc1c(Cl)cnc(NC(=O)CSc2nnc(C)n2Cc2ccccc2)c1Cl`, the AC50 is 5010 nM [falling, single point].

Regarding `COc1ccc(-n2nc(C(=O)N3CCN(Cc4ccc5c(c4)OCO5)CC3)c3ccccc3c2=O)cc1`, the AC50 is 4470 nM [falling, partial curve]. In the case of `C=C(C)c1cccc(C(C)(C)NC(=O)NCC2COCCO2)c1` (configuration not stated), the AC50 was 126 nM [rising, full curve, poor fit].

In the case of `O=C(Nc1ccccc1)c1cc2c(=O)c3ccccc3oc2nc1C(F)(F)F`, the AC50 is 1260 nM [rising, partial curve]. For `CCOC(=O)c1c(-c2ccc(OC)c(OC)c2)csc1NC(=O)c1ccccc1F`, the AC50 is 282 nM [falling, full curve]. The value for `CC(C)CN(C(=O)COC(=O)Cn1cnc2ccccc2c1=O)C1CCS(=O)(=O)C1` (configuration not stated) was 12600 nM [falling, single point].

Turning to `COC(=O)Cn1ncc2c3ccccc3n(Cc3ccccc3)c2c1=O`, the AC50 was 15800 nM [falling, partial curve, poor fit]. Under `Cc1c(-c2ccccc2)[n+](=O)c(-c2ccco2)c(C)n1[O-]` stands 31.6 nM [rising, full curve]; under `COc1cc(OC)c2c(c1)OC(c1ccc(OC)c(OC)c1)C(O)C2=O` (configuration not stated), 1780 nM [falling, partial curve, poor fit]; under `C=CCN(CC=C)S(=O)(=O)c1ccc(C(=O)Nc2sc3c(c2C(N)=O)CCCCC3)cc1`, 28.2 nM [rising, full curve, poor fit]. The value for `Cc1ccc(/C=C/C(=O)c2c(C)cc(C)[nH]c2=O)cc1` was 3980 nM [falling, single point]; that for `CCCCOC(=O)c1ccc(NC2=NS(=O)(=O)c3ccccc32)cc1` was 3980 nM [falling, full curve, poor fit]. The value for `Cc1ccc(NS(=O)(=O)c2c(C)nc3sccn3c2=O)c(Cl)c1` was 11200 nM [falling, single point]; that for `Cc1ccc2c(n1)sc1c(-c3ccccc3)c(C#N)c(N)nc12` was 3160 nM [rising, full curve].

On to `COc1ccccc1N1CCN(c2c(CN3CCCC3)c(=O)oc3ccccc23)CC1`, for which the AC50 was 14.1 nM [falling, full curve, poor fit]. `CCOC(=O)c1cc2occc2n1CC(=O)N1CCN(C(=O)c2ccco2)CC1`: the AC50 is 1410 nM [falling, full curve, poor fit]. The value for `O=S(=O)(c1ccc2ccccc2c1)N(CC(O)CN1CCOCC1)c1ccccc1` (configuration not stated) was 5010 nM [rising, partial curve, poor fit]; that for `CC1=NOC2(C1)/C(=N/O)CCC/C2=N\O` (configuration not stated) was 3160 nM [rising, single point]. Consider `CCOC(=O)CN(C(=O)CNC(=O)c1cccs1)C(C(=O)NC1CCCCC1)c1cccs1` (configuration not stated), for which the AC50 was 1000 nM [falling, full curve]. Turning to `O=C(Nc1cccc(-c2nc3ccccc3[nH]2)c1)c1ccco1`, the AC50 is 12600 nM [falling, partial curve, poor fit]. For the molecule `CCOc1ccc(CC(=O)Nc2c(C(N)=O)oc3ccccc23)cc1OCC`, the half-maximal activity concentration (AC50) is 1000 nM [falling, full curve]. For `CCSc1cnn(-c2ccccc2)c(=O)c1SCC`, the AC50 was 12600 nM [rising, partial curve]. On to `CC1CC(C)(C)NCc2ccccc21` (configuration not stated), for which the AC50 was 1260 nM [falling, full curve, poor fit]. Consider `CCS(=O)(=O)n1nc(-c2ccco2)nc1SC`, for which the AC50 is 501 nM [falling, full curve, poor fit]. In the case of `CCOC(=O)c1sc(NC(C)=O)c(C(=O)OCC)c1C`, the AC50 is 3.16 nM [falling, full curve, poor fit]. For the molecule `O=C1NC(=O)C2(CCC(C(=O)O)C2)N1` (configuration not stated), the AC50 is 31600 nM [falling, single point]. Consider `CCOC(=O)c1c(C)[nH]c(C(=O)COC(=O)CN2C(=O)C3CCCCC3C2=O)c1C` (configuration not stated), for which the AC50 is 1580 nM [falling, full curve, poor fit]. In the case of `O=C(Nc1ccccc1)c1ccc[n+](Cc2ccc([N+](=O)[O-])cc2)c1`, the AC50 is 5010 nM [rising, single point]. On to `CCCCN(CC)S(=O)(=O)c1ccc(C(=O)Nc2nnc(COC)o2)cc1`, for which the concentration at half-maximal activity (AC50) is 158 nM [falling, full curve, poor fit]. Consider `O=c1[nH]c2cc3c(cc2cc1C(c1nnnn1CC1CCCO1)N1CCCCCC1)OCO3` (configuration not stated), for which the AC50 was 200 nM [falling, full curve]. Turning to `CC1(C)CC(=O)C(C=NCC2CCN(C(=O)Nc3ccc(Cl)c(Cl)c3)CC2)=C(O)C1`, the AC50 is 15.8 nM [rising, partial curve, poor fit].

On to `CC1(C)Cc2c(sc3ncnc(N)c23)CO1`, for which the AC50 was 708 nM [falling, full curve].

Turning to `CCCCn1c(=N)n(CC(O)COc2ccccc2)c2ccccc21` (configuration not stated), the AC50 is 501 nM [falling, single point]. As for `Fc1ccc(CSc2ccc(-c3ccc4c(c3)OCO4)nn2)cc1`, the AC50 is 22400 nM [rising, single point]. In the case of `O=C(Cn1ncn2cccc2c1=O)N1CCCCC1`, the AC50 was 25.1 nM [rising, full curve, poor fit].

For `CCn1nc(C(=O)Nc2cccc(C(F)(F)F)c2)c(Cl)c1Cl`, the AC50 was 10 nM [falling, full curve, poor fit].

For the molecule `CCCCCOc1ccc(C2NC(=O)NC2=O)cc1` (configuration not stated), the AC50 was 3.16 nM [falling, full curve, poor fit]. In the case of `Cn1ncc(Cl)c1C(=O)Nc1cc(C(F)(F)F)ccc1F`, the AC50 is 251 nM [falling, full curve].

Regarding `Cc1cc(C)n(-c2cc(Cl)cc(Cl)c2)c(=O)c1C#N`, the AC50 is 251 nM [rising, single point]. Regarding `CN(C)c1nc(N)nc(N(c2ccccc2)c2ccccc2)n1`, the half-maximal activity concentration (AC50) was 35500 nM [falling, single point]. As for `COc1ccc(-c2cc(C(=O)Oc3ccc([N+](=O)[O-])cc3)c3ccccc3n2)cc1`, the AC50 is 5.01 nM [falling, full curve, poor fit]. The value for `O=C(NCC1CCCO1)C1CCN(CC2CCCCC2)CC1` (configuration not stated) was 25.1 nM [falling, full curve, poor fit]; that for `COc1ccc(C2C(C(N)=O)=C(C)Nc3nc(-c4cccc(Cl)c4)nn32)cc1OC` (configuration not stated) was 178 nM [rising, full curve, poor fit].

As for `CC(O)CNCc1ccc(-c2ccccc2)cc1` (configuration not stated), the AC50 is 6310 nM [rising, single point].
